This passage reports binding results from publication PMC6798794.

Protein sequences, listed by entry. Tags and fused reporters are not part of them. Residues count along the entry.
UniProt Q704Y3: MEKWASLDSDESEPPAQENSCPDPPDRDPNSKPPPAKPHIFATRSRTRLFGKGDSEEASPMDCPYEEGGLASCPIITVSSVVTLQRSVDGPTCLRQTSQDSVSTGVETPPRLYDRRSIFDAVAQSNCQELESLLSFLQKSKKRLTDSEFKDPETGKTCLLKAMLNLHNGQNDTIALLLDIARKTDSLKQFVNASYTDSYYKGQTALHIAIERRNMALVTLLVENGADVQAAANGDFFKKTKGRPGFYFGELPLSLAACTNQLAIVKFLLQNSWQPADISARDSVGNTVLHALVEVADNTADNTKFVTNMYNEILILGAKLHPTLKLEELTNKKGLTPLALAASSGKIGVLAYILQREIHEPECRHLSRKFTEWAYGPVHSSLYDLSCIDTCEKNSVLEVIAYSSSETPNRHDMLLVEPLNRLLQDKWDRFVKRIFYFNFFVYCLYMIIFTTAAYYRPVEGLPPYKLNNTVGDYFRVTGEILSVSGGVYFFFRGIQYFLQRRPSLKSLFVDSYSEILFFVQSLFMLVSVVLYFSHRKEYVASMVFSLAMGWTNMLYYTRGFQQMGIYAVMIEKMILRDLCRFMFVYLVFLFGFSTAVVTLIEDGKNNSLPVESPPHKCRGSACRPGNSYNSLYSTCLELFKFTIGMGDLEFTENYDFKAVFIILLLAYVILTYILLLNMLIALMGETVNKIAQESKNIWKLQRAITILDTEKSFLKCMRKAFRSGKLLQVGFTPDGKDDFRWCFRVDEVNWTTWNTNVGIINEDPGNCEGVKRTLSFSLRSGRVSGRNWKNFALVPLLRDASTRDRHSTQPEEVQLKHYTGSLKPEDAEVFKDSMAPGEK
UniProt Q9QUK6, residues 26-835: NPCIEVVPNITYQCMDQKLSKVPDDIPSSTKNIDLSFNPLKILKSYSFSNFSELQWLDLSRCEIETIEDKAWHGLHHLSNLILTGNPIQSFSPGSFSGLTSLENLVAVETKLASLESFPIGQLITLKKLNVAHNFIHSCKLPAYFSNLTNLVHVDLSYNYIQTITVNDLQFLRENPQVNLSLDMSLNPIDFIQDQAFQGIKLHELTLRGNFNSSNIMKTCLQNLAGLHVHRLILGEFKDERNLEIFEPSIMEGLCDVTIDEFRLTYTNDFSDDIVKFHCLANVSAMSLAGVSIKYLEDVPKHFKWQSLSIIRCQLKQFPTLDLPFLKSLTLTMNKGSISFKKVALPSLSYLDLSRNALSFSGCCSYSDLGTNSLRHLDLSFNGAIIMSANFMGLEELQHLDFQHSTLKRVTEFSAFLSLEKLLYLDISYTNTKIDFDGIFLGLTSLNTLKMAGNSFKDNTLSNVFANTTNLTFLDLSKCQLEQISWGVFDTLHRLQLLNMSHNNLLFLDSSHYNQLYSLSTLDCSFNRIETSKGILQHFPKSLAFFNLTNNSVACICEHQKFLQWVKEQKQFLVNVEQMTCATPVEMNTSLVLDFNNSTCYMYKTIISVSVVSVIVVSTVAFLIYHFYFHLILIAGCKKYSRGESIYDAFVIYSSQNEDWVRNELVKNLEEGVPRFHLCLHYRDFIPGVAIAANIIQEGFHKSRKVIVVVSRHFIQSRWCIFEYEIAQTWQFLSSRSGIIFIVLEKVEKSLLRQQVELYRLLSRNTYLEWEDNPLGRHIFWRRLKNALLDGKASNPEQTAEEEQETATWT

These are yes or no findings as the source states them, for the method shown. In cells and extracts the contact can be indirect. Some binding calls cover weakened binding; strength is not graded here.

Assay [1] has as its target Transient receptor potential vanilloid type 1 (mouse (endogenous in primary cultured microglia)) (UniProt Q704Y3). Briefly: co-IP; 500-600 ug total protein of cultured microglia in IP lysis buffer, incubated with 2 ug rabbit anti-TRPV1, mouse anti-TLR4 or control IgG and protein A/G agarose beads overnight at 4°C; washed three times; western blot.
Assay [2] concerns the target Toll-like receptor 4 (mouse (endogenous in primary cultured microglia)) (UniProt Q9QUK6). The assay is described as above.

In the case of “Toll-like receptor 4 (from UniProt Q9QUK6 26-835)”, the binding entry in assay [1] is listed as “binds”.

On to “Transient receptor potential vanilloid type 1 (from UniProt Q704Y3 1-839)”, for which the binding result in assay [2] is “binds”.
